Reference: paper doi:10.1101/2021.12.14.472597
No constants are given. Whether binding was seen depends on the method and setting. Binding seen in cells or lysates may run through a third protein. Some binding calls cover weakened binding; strength is not graded here. Sequences can lack the tags named with a protein.

Experiments:
Assay in all cases: co-IP
[1] = target: T1, AtSK41, GFP-tagged (Arabidopsis thaliana) (UniProt Q39019)
T1 sequence: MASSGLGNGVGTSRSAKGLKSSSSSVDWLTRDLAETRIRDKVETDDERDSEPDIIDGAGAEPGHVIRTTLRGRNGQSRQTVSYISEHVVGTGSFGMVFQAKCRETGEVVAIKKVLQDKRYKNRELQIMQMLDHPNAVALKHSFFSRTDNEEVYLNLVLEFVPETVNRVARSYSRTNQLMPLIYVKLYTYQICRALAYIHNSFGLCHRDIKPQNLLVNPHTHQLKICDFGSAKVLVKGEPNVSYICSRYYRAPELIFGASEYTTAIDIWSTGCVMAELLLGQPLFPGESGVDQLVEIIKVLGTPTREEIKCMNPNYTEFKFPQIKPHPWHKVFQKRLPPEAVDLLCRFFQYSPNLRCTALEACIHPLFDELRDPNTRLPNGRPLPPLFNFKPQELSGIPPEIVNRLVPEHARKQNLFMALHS

[2] = target: T2, AtSK42, GFP-tagged (Arabidopsis thaliana) (UniProt Q9FVS6)
T2 sequence: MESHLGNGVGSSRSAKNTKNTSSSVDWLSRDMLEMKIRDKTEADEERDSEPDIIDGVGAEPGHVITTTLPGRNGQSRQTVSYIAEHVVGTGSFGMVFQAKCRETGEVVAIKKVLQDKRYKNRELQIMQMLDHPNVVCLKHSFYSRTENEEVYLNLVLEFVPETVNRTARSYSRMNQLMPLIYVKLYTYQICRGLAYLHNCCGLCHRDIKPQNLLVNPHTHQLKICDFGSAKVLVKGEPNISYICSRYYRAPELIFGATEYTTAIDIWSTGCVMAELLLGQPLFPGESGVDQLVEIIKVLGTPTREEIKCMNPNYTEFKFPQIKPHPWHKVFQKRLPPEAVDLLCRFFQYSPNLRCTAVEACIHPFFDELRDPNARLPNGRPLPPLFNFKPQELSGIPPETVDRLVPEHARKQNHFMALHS

[3] = target: T3, AtSK12, GFP-tagged (Arabidopsis thaliana) (UniProt P43289)
T3 sequence: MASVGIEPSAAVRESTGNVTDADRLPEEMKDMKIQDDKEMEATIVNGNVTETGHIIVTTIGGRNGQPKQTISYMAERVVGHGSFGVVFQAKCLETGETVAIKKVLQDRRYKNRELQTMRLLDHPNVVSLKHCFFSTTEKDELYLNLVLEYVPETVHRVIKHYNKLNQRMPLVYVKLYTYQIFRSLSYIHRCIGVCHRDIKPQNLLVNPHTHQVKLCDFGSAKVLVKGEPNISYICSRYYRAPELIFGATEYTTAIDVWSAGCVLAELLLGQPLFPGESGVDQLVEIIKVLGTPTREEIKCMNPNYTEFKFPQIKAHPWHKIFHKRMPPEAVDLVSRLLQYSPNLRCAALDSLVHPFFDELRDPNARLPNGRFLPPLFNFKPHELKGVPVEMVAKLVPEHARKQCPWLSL

[4] = target: T4, AtSK13, GFP-tagged (Arabidopsis thaliana) (UniProt Q8VZD5)
T4 sequence: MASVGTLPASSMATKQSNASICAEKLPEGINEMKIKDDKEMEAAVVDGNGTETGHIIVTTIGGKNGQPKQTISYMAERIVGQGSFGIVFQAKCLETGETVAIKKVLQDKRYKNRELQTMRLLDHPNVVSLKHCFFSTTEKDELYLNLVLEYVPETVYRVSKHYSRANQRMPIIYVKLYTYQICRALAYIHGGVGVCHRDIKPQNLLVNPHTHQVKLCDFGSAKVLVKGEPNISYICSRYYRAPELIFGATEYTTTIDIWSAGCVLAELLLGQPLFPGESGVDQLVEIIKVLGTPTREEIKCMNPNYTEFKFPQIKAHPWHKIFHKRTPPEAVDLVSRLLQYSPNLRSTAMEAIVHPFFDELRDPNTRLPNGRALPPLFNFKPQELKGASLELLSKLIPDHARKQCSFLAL

[5] = target: T5, AtSK32, GFP-tagged (Arabidopsis thaliana) (UniProt Q96287)
T5 sequence: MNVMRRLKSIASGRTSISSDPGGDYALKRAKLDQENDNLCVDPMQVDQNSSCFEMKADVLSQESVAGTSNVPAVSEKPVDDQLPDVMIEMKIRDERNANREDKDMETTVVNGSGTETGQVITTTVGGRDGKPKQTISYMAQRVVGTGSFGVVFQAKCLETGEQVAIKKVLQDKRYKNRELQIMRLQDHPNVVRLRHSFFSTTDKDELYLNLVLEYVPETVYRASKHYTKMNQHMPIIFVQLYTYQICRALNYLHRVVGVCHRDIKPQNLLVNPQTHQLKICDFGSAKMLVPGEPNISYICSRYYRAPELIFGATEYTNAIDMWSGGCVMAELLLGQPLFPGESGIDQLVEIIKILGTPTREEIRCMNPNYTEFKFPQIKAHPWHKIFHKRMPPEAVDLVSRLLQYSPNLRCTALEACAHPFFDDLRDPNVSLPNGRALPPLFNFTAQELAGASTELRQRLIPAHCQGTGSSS

[6] = target: T6, AtSK11, GFP-tagged (Arabidopsis thaliana) (UniProt P43288)
T6 sequence: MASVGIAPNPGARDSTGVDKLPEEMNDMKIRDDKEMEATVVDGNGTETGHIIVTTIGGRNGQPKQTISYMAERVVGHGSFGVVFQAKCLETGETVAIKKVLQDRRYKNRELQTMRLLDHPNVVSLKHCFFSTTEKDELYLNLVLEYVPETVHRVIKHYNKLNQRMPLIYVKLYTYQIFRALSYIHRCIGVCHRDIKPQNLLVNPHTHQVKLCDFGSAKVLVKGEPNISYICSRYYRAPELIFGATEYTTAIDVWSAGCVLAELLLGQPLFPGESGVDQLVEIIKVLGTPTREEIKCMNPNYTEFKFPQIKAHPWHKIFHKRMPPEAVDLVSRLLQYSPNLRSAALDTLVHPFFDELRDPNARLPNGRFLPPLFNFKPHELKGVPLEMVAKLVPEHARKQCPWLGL

[7] = target: T7, AtSK22, GFP-tagged (Arabidopsis thaliana) (UniProt Q39012)
T7 sequence: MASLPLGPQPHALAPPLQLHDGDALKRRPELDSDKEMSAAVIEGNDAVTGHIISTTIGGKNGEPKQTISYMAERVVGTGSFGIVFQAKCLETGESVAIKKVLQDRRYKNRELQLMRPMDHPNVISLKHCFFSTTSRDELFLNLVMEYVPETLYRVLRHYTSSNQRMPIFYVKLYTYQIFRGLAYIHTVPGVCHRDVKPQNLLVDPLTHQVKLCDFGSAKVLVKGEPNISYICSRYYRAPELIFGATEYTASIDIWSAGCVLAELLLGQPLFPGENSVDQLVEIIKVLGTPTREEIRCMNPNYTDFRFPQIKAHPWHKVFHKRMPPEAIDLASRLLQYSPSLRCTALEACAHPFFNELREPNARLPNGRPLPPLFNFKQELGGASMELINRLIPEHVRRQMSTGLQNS

[8] = target: T8, BR-…2 (BIN2)/AtSK21, GFP-tagged (Arabidopsis thaliana) (UniProt Q39011)
T8 sequence: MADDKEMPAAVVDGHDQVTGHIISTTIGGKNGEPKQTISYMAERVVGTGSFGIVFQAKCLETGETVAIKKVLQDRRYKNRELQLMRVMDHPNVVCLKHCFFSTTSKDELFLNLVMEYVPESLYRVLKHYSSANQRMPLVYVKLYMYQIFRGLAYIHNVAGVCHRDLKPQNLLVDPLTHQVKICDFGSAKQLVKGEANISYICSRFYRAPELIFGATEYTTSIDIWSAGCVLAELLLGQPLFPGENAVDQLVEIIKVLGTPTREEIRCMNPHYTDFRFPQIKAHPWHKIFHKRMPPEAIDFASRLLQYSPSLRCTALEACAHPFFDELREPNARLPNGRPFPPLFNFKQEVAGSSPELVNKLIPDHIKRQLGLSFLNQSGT

[9] = target: T9, AtSK23, GFP-tagged (Arabidopsis thaliana) (UniProt Q39010)
T9 sequence: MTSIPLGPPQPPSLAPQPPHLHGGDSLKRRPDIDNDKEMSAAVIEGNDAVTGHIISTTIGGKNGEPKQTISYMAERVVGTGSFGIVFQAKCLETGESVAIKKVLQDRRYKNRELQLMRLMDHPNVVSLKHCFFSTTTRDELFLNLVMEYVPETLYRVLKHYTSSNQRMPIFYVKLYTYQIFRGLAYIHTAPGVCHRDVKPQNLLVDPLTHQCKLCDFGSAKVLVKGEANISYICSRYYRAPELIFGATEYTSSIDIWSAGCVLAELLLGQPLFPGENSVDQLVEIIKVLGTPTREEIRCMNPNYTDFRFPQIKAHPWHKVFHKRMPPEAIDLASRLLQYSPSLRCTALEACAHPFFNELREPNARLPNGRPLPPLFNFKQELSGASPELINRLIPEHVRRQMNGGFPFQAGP

Measured: binding

B1: HOPW1-1-…2 (WIN2, AT4G31750), HA-tagged (protein, UniProt Q8RXV3 1-311)
chain: MGYLNSVLSSSSQVHSDDGPVSGGGLSQNGKFSYGYASSPGKRSSMEDFYETRIDGVEGEIVGLFGVFDGHGGARAAEYVKQNLFSNLIRHPKFISDTTAAIADAYNQTDSEFLKSENSQNRDAGSTASTAILVGDRLLVANVGDSRAVICRGGNAIAVSRDHKPDQSDERQRIEDAGGFVMWAGTWRVGGVLAVSRAFGDRLLKQYVVADPEIQEEKVDSSLEFLILASDGLWDVVSNEEAVGMIKAIEDPEEGAKRLMMEAYQRGSADNITCVVVRFFSDQAGGIGSSSTNIPIDHGIVPDRISGDSST
binds: all assays above
